For 41 molecules, AC50 results are on record in PubChem BioAssay AID493014 (National Center for Advancing Translational Sciences (NCATS), 2011).

“And” between values parts separate entries of the source, which are not always exact repeats. Equal values may be shown once. This is one part of the list. Further columns of the screen follow, without active or inactive calls. The list favours compounds with an active or inconclusive main result. Potencies come from curve fits of mixed quality, noted in brackets.

The nature of the test: qHTS Assay to Find Inhibitors of Chronic Active B-Cell Receptor Signaling. The following applies: ABC-DLBCL IkBa-CBG/CBR reporter, luminescence ratio (green luciferase fused to IkBa over red control in TMD8 lymphoma cells), 4 h. The essentials:
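Doxycycline induced both beetle luciferases in TMD8 lymphoma cells; IKK-driven degradation limits the IkappaBalpha-fused green signal, while red luminescence normalises for cell number and nonspecific effects. Compounds tested up to 46 uM, 4 hrs.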
On the technique in general: Quantitative high-throughput screening tests each substance at several concentrations.

[1] abbreviates: measured here: CBR red luminescence, cell number.
[2] abbreviates: measured here: IkBa-CBG green luminescence.

`CC(O)C(O)C(O)C(O)/C=N/NC(=O)c1ccccc1` (stereo unspecified): under setting [1], the concentration at half-maximal activity (AC50) was 10.3 µM [falling, partial curve, poor fit]. Take `Fc1c(F)c(C(F)(F)F)c(F)c(F)c1N/N=C\c1cccs1`: under setting [1], the AC50 is 2.91 µM [rising, partial curve, poor fit]. Still for that read-out and setting: for `Cc1cccc(OCC(=O)O/N=C(\N)c2ccc(Cl)cc2)c1` the value was 0.447 µM [rising, full curve, poor fit]. With `CCCCNC(=O)Nc1ccccc1CC`, under setting [1], the AC50 was 0.112 µM [falling, full curve, poor fit]. Turning to `CN1CCC(=C2c3ccccc3CCc3sccc32)CC1`, under setting [1], the half-maximal activity concentration (AC50) is 35.5 µM [falling, single point] and 29.1 µM [falling, single point].

`COc1ccc(NC(=O)CSCC(=O)N(C)Cc2ccc(Cl)c(Cl)c2)cc1`: under setting [1], the AC50 is 9.2 µM [falling, partial curve, poor fit]. `Cc1cnc(NC(=O)c2cc3c(s2)CCCC3)s1`: the AC50 under setting [1] was 8.2 µM [falling, partial curve, poor fit]. For the molecule `COc1ccc(/C=N/NC(=O)c2[nH]ncc2Br)c(OC)c1`, under setting [1], the AC50 is 11.6 µM [falling, partial curve, poor fit]. Turning to `COc1ccc(CN2CCc3c([nH]c4ccccc34)C2)cc1Br`, the half-maximal activity concentration (AC50) under setting [1] was 12.6 µM [falling, single point].

For the molecule `CC(NC(=O)c1ccco1)C(=O)OCc1cccc(C(F)(F)F)c1` (stereo unspecified), the AC50 under setting [1] is 0.116 µM [falling, partial curve, poor fit]. `Fc1ccc(-c2cnc(-c3cccs3)o2)cc1`: under setting [1], the AC50 was 1.26 µM [rising, full curve].

As for `COc1cc(/C=N/n2nnnc2N)ccc1OCC#N`, the AC50 under setting [1] was 35.5 µM [rising, partial curve, poor fit].

Consider `CCOC(=O)c1c(NC(=O)CCC(=O)O)sc2c1CCCCC2`, for which the AC50 under setting [1] is 16.4 µM [falling, single point]. `CC(CNC(=O)CCC(=O)N1CCOc2ccc(Cl)cc21)c1ccccc1` (stereo unspecified): under setting [1], the AC50 was 14.1 µM [falling, partial curve, poor fit]. Take `CC[C@]12c3[nH]c4cc(CCC(=O)N(C)C)ccc4c3CCN1C(=O)[C@@H](CC(=O)NCC13CC4CC(CC(C4)C1)C3)C[C@@H]2C(=O)N1CCN(C(=O)C2CC2)CC1`: the AC50 under setting [1] is 29.1 µM [falling, single point].

In the case of `CC(NC(=O)CN(C)Cc1nc2ccccc2c(=O)[nH]1)c1ccccc1` (stereo unspecified), the AC50 under setting [1] was 0.82 µM [falling, full curve, poor fit]. For `CCCCC1=CC2=CC(=O)C(C)(OC(=O)CC)C(=O)C2=CN1Cc1ccc(OC)cc1` (stereo unspecified), the AC50 under setting [1] is 17.8 µM [rising, single point]. `Cc1ccc(-c2nc3ccccc3o2)cc1NC(=S)NC(=O)c1cccs1`: the half-maximal activity concentration (AC50) under setting [1] is 2.82 µM [rising, full curve, poor fit].

On to `COc1ccc(-n2nc3cc(C)c(N)c(Br)c3n2)cc1`, for which the AC50 under setting [1] is 7.08 µM [rising, partial curve]. On to `Cc1cccc(NC(=O)Cc2c(F)cccc2Cl)n1`, for which the AC50 under setting [1] is 35.5 µM [falling, partial curve, poor fit]. Same read-out and setting: for `COc1ccccc1Oc1ccnc2cc(Cl)ccc12` the value was 6.31 µM [falling, full curve]; for `CCOC(=O)c1cc(C)n(-c2c(C)n(C)n(-c3ccccc3)c2=O)c1C`, 1.03 µM [falling, full curve, poor fit]; for `COc1ccc(S(=O)(=O)N2CCCC2CNC(=O)C(=O)NCCc2ccccc2)cc1` (stereo unspecified), 29.1 µM [rising, single point]. As for `COc1cc(NC(=O)c2cccs2)ccc1NC(=O)c1ccccc1Cl`, the AC50 under setting [2] was 4.47 µM [rising, full curve, poor fit].

With `COc1ccc(CCNC(=S)c2ccccc2)cc1OC`, under setting [1], the AC50 is 3.98 µM [rising, full curve, poor fit]. As for `Brc1ccccc1C1CC(c2ccccc2)=Nc2ccccc2N1` (stereo unspecified), the AC50 under setting [1] is 23.1 µM [falling, partial curve, poor fit].

As for `C/C(=N/NC(=O)c1ccc2c(c1)OCCO2)c1ccc([N+](=O)[O-])cc1`, the AC50 under setting [1] was 35.5 µM [falling, single point].

As for `C=CCn1c(N)c(C(=O)NCc2cccnc2)sc1=S`, the AC50 under setting [1] is 8.2 µM [rising, partial curve, poor fit].

In the case of `COc1ccc2c(Cl)c(-c3nnc(SCC(=O)c4ccccc4)n3C)sc2c1`, the AC50 under setting [1] is 29.1 µM [rising, single point]. On the same count and under the same terms, for `O=C(N/N=C/c1ccccc1OCC(=O)N1CCCC1)C(=O)Nc1ccccc1F` the value was 0.146 µM [falling, full curve]; for `CCOC(=O)C1=C(C)NC(=S)N(C(C)=O)C1c1ccc(Cl)cc1` (stereo unspecified), 0.326 µM [falling, full curve, poor fit]; for `CC(C)Cn1c(=O)c2c(nc3n2CCCN3CCc2ccccc2)n(C)c1=O`, 11.2 µM [falling, partial curve, poor fit]. Consider `CC(C)(C)c1cccc(Cn2nnc3ccccc32)c1O`, for which the half-maximal activity concentration (AC50) under setting [1] was 13 µM [falling, partial curve, poor fit]. Same read-out and setting: for `Fc1ccc(C(CCNCc2ccccn2)c2ccc(Cl)cc2)cc1` (stereo unspecified) the value was 35.5 µM [falling, single point]. For the molecule `O=C(NC(=S)NCCc1ccccc1)c1ccco1`, under setting [1], the AC50 is 3.16 µM [rising, partial curve, poor fit].

In the case of `Cc1oc(-c2ccc3c(c2)OCCO3)cc1C(=O)O`, the AC50 under setting [1] was 0.316 µM [falling, full curve, poor fit]. Still for that read-out and setting: for `COC(=O)C1=C(N)Oc2cc(C)n(CC3CCCO3)c(=O)c2C1c1ccccc1OC` (stereo unspecified) the value was 6.31 µM [falling, single point]; for `CCn1cnc2sc(C(=O)O)c(C)c2c1=O`, 1.16 µM [rising, single point]. Consider `Fc1ccc(Nc2nc(SCc3cccc(Cl)c3)nc3ccccc23)cc1`, for which, under setting [2], the AC50 was 17.8 µM [rising, single point]. Consider `O=C(Nc1cccc(C(=O)O)c1)Nc1ccc2c(c1)OCO2`, for which the AC50 under setting [1] is 0.447 µM [falling, full curve]. For `O=C1CC(c2ccco2)Cc2nc(N3CCc4ccccc4C3)ncc21` (stereo unspecified), under setting [1], the AC50 was 2.24 µM [rising, full curve, poor fit].

Broadly, the AC50 is the concentration at which the activity in the assay is half-maximal.
